Experimental data as given in paper PMC10104784.
No constants are given. Whether binding was seen depends on the method and setting. Binding seen in cells or lysates may run through a third protein. Some binding calls cover weakened binding; strength is not graded here.

Amino acid sequences for entries named in this document (tags omitted).
UniProt Q921E6: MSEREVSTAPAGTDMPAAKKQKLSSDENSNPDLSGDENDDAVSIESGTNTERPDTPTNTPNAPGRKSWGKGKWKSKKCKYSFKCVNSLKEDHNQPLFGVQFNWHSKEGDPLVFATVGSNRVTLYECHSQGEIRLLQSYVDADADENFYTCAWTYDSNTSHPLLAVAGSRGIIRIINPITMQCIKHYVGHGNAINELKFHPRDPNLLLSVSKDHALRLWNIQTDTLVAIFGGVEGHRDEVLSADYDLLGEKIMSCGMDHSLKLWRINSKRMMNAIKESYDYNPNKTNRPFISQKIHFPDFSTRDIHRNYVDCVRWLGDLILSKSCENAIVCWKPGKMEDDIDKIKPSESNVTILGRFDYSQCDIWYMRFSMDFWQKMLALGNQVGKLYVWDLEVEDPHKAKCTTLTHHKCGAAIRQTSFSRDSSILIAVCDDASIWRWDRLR
UniProt Q61188: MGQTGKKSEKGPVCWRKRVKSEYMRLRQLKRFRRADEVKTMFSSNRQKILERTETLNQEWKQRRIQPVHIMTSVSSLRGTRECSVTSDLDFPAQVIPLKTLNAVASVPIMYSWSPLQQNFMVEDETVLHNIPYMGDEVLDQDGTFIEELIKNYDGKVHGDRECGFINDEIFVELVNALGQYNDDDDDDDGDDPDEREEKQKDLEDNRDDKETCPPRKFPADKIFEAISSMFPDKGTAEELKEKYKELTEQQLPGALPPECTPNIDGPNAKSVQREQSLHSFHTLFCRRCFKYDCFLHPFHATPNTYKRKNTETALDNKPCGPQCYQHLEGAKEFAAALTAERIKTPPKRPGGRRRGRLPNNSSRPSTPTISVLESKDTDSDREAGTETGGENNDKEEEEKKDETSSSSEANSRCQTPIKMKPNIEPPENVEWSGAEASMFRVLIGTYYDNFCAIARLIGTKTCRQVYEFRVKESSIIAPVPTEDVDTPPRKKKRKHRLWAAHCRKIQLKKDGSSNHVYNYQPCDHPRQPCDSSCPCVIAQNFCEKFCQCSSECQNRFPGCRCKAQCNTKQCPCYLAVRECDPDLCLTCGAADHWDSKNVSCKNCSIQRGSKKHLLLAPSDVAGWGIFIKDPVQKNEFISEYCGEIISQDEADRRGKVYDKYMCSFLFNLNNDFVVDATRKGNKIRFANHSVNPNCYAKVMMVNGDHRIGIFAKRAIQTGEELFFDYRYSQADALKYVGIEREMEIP
UniProt Q80U70: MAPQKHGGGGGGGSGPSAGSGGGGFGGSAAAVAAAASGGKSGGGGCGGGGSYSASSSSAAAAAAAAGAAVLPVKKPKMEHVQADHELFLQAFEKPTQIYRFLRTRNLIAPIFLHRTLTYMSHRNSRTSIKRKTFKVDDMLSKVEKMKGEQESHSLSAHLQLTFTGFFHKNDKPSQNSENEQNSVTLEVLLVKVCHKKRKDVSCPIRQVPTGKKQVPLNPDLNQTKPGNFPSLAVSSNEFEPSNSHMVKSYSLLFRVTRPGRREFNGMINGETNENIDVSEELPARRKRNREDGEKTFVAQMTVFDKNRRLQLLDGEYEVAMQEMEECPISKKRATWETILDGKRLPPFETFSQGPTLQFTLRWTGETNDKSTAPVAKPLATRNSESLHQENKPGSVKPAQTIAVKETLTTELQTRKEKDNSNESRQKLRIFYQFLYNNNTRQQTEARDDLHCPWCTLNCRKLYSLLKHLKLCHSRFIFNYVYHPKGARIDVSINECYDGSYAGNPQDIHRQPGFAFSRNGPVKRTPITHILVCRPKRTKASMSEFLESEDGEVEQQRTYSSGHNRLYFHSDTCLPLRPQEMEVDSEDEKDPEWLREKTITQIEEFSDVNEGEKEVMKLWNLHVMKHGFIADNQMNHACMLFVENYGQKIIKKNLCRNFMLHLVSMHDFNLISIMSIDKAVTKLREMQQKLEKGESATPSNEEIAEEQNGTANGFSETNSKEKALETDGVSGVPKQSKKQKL

What was measured:
[1] = biological target: embryonic ectoderm development (EED) (mouse (endogenous in TSCs and ESCs)) (UniProt Q921E6); experiment: co-IP; EED IP (anti-EED, Abcam ab4469; control IgG) from sonicated whole-cell lysates of WT TSCs, untreated or treated with EZH2i (Tazemetostat, 10 µM, ~5 weeks); 0.5x NLB (218.5 mM NaCl, 0.5% Triton X-100, 0.05% Tween-20, pH 7.4), overnight in the cold room; Protein G Dynabeads; western blot
[2] = biological target: embryonic ectoderm development (EED) (mouse (endogenous in TSCs and ESCs)) (UniProt Q921E6); experiment: co-IP; EED IP (anti-EED, Abcam ab4469; control IgG) from sonicated whole-cell lysates of WT ESCs; 0.5x NLB; Protein G Dynabeads; western blot

Row | binding [1] | binding [2] | Molecule
1 | binds | binds | EZH2 (from UniProt Q61188 1-746)
2 | binds | binds | SUZ12 (from UniProt Q80U70 1-741)
3 | no binding | no binding | RYBP (protein, UniProt Q8CCI5 1-228) MTMGDKKSPTRPKRQAKPAADEGFWDCSVCTFRNSAEAFKCSICDVRKGTSTRKPRINSQLVAQQVAQQYATPPPPKKEKKEKVEKPDKEKPEKDKDISPSVTKKNTNKKTKPKSDILKDPPSEANSIQSANATTKTSETNHTSRPRLKNVDRSTAQQLAVTVGNVTVIITDFKEKTRSSSTSSSTVTSSAGSEQQNQSSSGSESTDKGSSRSSTPKGDMSAVNDESF
